Source: the supplement of paper PMC3334620
Whole data set: some 33,000 sequences, median “E-score (-0.5 to 0.5)” near -0.015, cut for the highest 2% near 0.3. Some of the results follow.

Each sequence was assayed against T1, Abf1 (UniProt P14164) (assay: PBM E-score (8-mer binding enrichment) (E-score (-0.5 to 0.5)); higher = stronger / more preferred TF binding). Conditions: protein concentration: 200 nM; construct: GST-full length.
T1 sequence: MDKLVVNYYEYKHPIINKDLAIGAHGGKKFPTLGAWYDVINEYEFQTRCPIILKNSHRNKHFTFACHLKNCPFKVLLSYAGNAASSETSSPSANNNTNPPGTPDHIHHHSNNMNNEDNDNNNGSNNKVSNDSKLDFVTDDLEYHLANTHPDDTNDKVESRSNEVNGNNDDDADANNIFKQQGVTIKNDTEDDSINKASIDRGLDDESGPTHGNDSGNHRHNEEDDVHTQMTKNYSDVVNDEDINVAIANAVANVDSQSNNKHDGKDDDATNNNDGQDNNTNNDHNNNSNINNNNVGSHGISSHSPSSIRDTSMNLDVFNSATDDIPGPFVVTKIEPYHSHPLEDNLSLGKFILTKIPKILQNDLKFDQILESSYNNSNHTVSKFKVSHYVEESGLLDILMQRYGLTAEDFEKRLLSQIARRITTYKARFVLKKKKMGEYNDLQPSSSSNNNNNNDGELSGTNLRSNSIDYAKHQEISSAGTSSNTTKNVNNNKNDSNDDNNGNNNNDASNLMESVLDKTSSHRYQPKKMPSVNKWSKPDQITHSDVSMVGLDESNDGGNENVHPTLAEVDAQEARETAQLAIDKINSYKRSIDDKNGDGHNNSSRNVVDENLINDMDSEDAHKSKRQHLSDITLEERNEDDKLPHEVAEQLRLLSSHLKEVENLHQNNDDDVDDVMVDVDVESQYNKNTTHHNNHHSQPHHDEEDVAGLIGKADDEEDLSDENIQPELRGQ
Method in brief: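 The E-score, a modified Wilcoxon-Mann-Whitney statistic, was computed by the Universal PBM Analysis Suite for every ungapped eight-base word pooled with its reverse complement. Scans behind it were normalised with masliner after bound GST-tagged yeast transcription factors were detected with fluorescent anti-GST. The proteins, at about 100-200 nM, had been applied to universal all-10-mer Agilent arrays made double-stranded by primer extension.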

Sequence	PBM E-score
CAGACGAC	0.191
ACGTTAGA	0.237
CAAACGCC	0.0828
CCCAACAG	-0.269
GTCACGAC	0.261
ATAACCAC	0.108
AAATCAGT	0.153
ATTGGAGC	-0.128
GGAATGAC	0.215
GGTTCCCA	-0.188
CGCCGTTA	0.14
CCTCCACA	-0.229
CAAGTTGC	0.0577
ATGTCTAA	0.194
AGTGATAC	0.385
GAACAGGA	0.0171
AGTACCTC	0.0185
GTTTAACA	0.0815
GTGCCTTA	0.0147
AGGTCGAT	0.132
GGCTTCCC	-0.0974
GATACGAC	0.148
GAACCAAC	-0.0801
ATCCGCCA	-0.0568
GATATCGA	0.271

Sequence	PBM E-score
ACTCTTAG	-0.0672
GATCTCCA	0.167
GACACCCA	-0.108
GGGCCAGA	-0.208
AAGAATCT	-0.115
ACGTTCAT	0.0656
AGTGGCTG	-0.142
AGGCCTGA	-0.101
CACACTTA	-0.007
GCAACGTA	0.123
GAGGAGTA	-0.0454
AGCACTAT	0.0825
CGATCCAA	0.148
ATCGAATG	-0.0318
CTATGTAA	-0.0567
TATATTGA	0.0852
ACAACATC	-0.0257
ATCCGATC	-0.092
GCTTATCA	0.0367
AATAACGC	-0.118
CTAAAAGA	-0.161
CCTAAGTA	0.169
AACGGCCT	0.0741
CCGGTGTA	-0.124
AGTTAGAA	0.0564

Sequence	PBM E-score
GGTGAACC	-0.174
CTCGTGGC	0.0236
CCCCGATA	-0.157
AGTCTATC	0.00248
CCCTTAAG	-0.111
CCAACTGG	-0.0293
ATTAACTA	0.187
ATACCGAC	-0.0227
ACTCGTAC	0.195
GGCTAACA	0.00759
GCTGAGTA	-0.21
ATTAATGG	0.275
ATATACCA	0.173
GGATCATA	0.0286
TAGGTGGA	0.093
CCATATAG	-0.0494
AACTAGTT	-0.0594
GTTCTCCA	-0.0724
CGACCAAA	0.126
CGTATGGA	0.232
AAATATAC	0.0697
GGAGTGCC	-0.252
AGAGAGGG	-0.191
CATGCAGC	-0.143
AGAAGCTC	0.0115

Sequence	PBM E-score
CATAAGAG	-0.0863
AACGGTGG	-0.0044
ATGCCTCG	0.0921
ACCGGGCA	-0.222
AAAGCTGC	0.0689
GTCAATCA	0.12
AAATGTCT	0.145
AATGAGCC	-0.35
ATCTTCCC	-0.146
CCAAGATC	0.0578
AACCGATG	-0.0418
GCCCGACA	-0.0668
ACGATGAC	0.264
CGCGTCCG	-0.0887
ACTGCACG	-0.0217
CGCTCGTC	0.175
CGCTCCAA	-0.0928
GATGATTA	0.263
ACGTTTCC	0.0711
CGTCCGCA	-0.0473
TCGAGGAA	-0.148
CCCCGAGA	-0.183
GCCTACAA	-0.14
AACACTTG	-0.0627
CGGAGTTA	0.0161

Sequence	PBM E-score
GTTCTAAA	0.119
ATCTGCTA	0.0805
AATGCGCG	0.13
GTGGTAGA	-0.089
CTCGCGCA	-0.135
ACACGCCT	0.0759
AATGGCAC	-0.21
GTCCCCAA	0.0213
GCAGGTAA	-0.0689
ATACCCAA	0.0687
CAAGGCGG	-0.119
AGAAGCTA	0.0919
ACGTTGAC	0.0962
GCTGATAC	0.0305
CCCCAGGA	-0.301
CCGTCGAC	0.103
AATGACCG	-0.0142
CCACAGAC	-0.0822
GGACTCAC	-0.0476
ACCGGTGG	-0.364
GAGGTCAC	0.25
CGACCCCC	-0.369
AATCGTCG	0.24
CCCCGAAA	-0.0454
ACCTTAAG	-0.0181

Copied from the listing for reference:
Sequence	PBM E-score
ACCGGGCA	-0.222
AAAGCTGC	0.0689
GTCAATCA	0.12
AAATGTCT	0.145
AATGAGCC	-0.35
ATCTTCCC	-0.146
CCAAGATC	0.0578
AACCGATG	-0.0418
GCCCGACA	-0.0668
ACGATGAC	0.264
CGCGTCCG	-0.0887
ACTGCACG	-0.0217
CGCTCGTC	0.175
CGCTCCAA	-0.0928
GATGATTA	0.263
ACGTTTCC	0.0711
CGTCCGCA	-0.0473
TCGAGGAA	-0.148
CCCCGAGA	-0.183
GCCTACAA	-0.14
AACACTTG	-0.0627
CGGAGTTA	0.0161
GTTCTAAA	0.119
ATCTGCTA	0.0805
AATGCGCG	0.13
GTGGTAGA	-0.089
CTCGCGCA	-0.135
ACACGCCT	0.0759
AATGGCAC	-0.21
GTCCCCAA	0.0213
GCAGGTAA	-0.0689
ATACCCAA	0.0687
CAAGGCGG	-0.119
AGAAGCTA	0.0919
ACGTTGAC	0.0962
GCTGATAC	0.0305
CCCCAGGA	-0.301
CCGTCGAC	0.103
AATGACCG	-0.0142
CCACAGAC	-0.0822
GGACTCAC	-0.0476
ACCGGTGG	-0.364
GAGGTCAC	0.25
CGACCCCC	-0.369
AATCGTCG	0.24
CCCCGAAA	-0.0454

The list continues.

Sequence	PBM E-score
ATGAACCG	-0.0583
ACGAAAGC	0.356
TAATCACA	0.0137
GCCGATGA	-0.0318
GGCTTCAC	-0.0488
AGTCTGAT	-0.0793
CGAGGACA	-0.0166
GAGACACC	-0.178
ATGCCCAA	-0.0366
ACGCGATC	0.144
CATATAGA	-0.0343
ATCTGGTG	0.0381
CTTCTCGA	0.0296
CTAAACGA	0.158
AACGCCGG	-0.164
GACCTAAC	0.22
GGAAAGGA	-0.276
AAGTGTGT	0.154
GCGTAGAA	0.0196
CACGACCC	0.0117
CGTCTATA	0.159
ACAGTAGT	-0.078
ATTTTTAC	0.114
AACCTAGT	-0.015
ACTGTGTG	-0.00379

Sequence	PBM E-score
ATGTTGTA	0.098
AGCTGCTG	-0.0862
ACACAAAA	0.00785
CTTTCCCC	-0.148
ACTGAAAC	0.00209
CCGCCGGC	-0.123
CCGTCAGA	0.132
AGTTCCTA	0.0999
AGCACCCA	-0.276
GAGGGGGA	-0.355
ATACGAAC	0.294
GCCATGGC	-0.267
ACAGAAGC	0.00103
CTCCCAGA	-0.159
ACGGCAGA	0.206
CATCGAAC	0.119
AAACTACA	0.0477
GCCTGGGA	-0.0751
ACTGATCG	0.0647
ATAATGCG	0.0263
GGCTCCCC	-0.241
CGGGATAC	0.0549
